# Measured values: the supplement of paper PMC8728848
# The other results are listed elsewhere or left out.
# B1: Erv41-EDTA (Saccharomyces cerevisiae), Q04651 (protein)
# chain: MKFLVNVALVFMVVYISYIYAAAPEHHHHHHDYDIPTTENLYFQGAMGYIDQQYVVDSQVRDTVQINMDIYVNTKCDWLQINVRDQTMDRKLVLEELQLEEMPFFIPYDTKVNDINEIITPELDEILGEAIPAEFREKLDTRSFFDESDPNKAHLPEFNGCHVFGSIPVNRVSGELQITAKSLGYVASRKAPLEELKFNHVINEFSFGDFYPYIDNPLDNTAQFNQDEPLTTYVYYTSVVPTLFKKLGAEVDTNQYSVNDYRYLYKDVAAKGDKMPGIFFKYNFEPLSIVVSDVRL
# Columns and labels:
# Assay in all cases: glycan array binding signal (z-score within array); higher = stronger binding
# Settings in all cases: glycan notation: IUPAC condensed, linker removed
# [1] = molecular target: Glc(b1-4)Glc
# Summary of the method: (§1)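 Negative Z-scores can be read as non-binding. The Z-score is calculated within each array and then averaged across arrays of one protein sequence at different concentrations or buffers and across linkers. Arrays, 3228 in all, were curated from the Consortium for Functional Glycomics database and kept only where the protein sequence was available.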
# [2] = molecular target: Glc(b1-6)Glc
# Summary of the method: as §1
# [3] = molecular target: GlcA(b1-3)Gal
# Summary of the method: as §1
# [4] = molecular target: GlcA(b1-3)GlcNAc
# Summary of the method: as §1
# [5] = molecular target: GlcA(b1-6)Gal
# Summary of the method: as §1
# [6] = molecular target: GlcA3S(b1-3)Gal(b1-4)GlcNAc(b1-2)Man
# Summary of the method: as §1
# [7] = molecular target: GlcA3S(b1-3)Gal(b1-4)GlcNAc(b1-3)Gal(b1-4)Glc
# Summary of the method: as §1
# [8] = molecular target: GlcNAc(a1-3)Gal(b1-4)GlcNAc
# Summary of the method: as §1
# [9] = molecular target: GlcNAc(a1-4)Gal(b1-3)GlcNAc
# Summary of the method: as §1
# [10] = molecular target: GlcNAc(a1-4)Gal(b1-4)GalNAc
# Summary of the method: as §1
# [11] = molecular target: GlcNAc(a1-4)Gal(b1-4)GlcNAc
# Summary of the method: as §1
# [12] = molecular target: GlcNAc(a1-4)Gal(b1-4)GlcNAc(b1-3)Gal(b1-4)Glc
# Summary of the method: as §1
# [13] = molecular target: GlcNAc(a1-4)Gal(b1-4)GlcNAc(b1-3)Gal(b1-4)GlcNAc
# Summary of the method: as §1
# [14] = molecular target: GlcNAc(a1-4)Gal(b1-4)GlcNAc(b1-3)Gal(b1-4)GlcNAc(b1-3)Gal(b1-4)GlcNAc
# Summary of the method: as §1
# [15] = molecular target: GlcNAc(a1-4)Gal(b1-4)GlcNAc(b1-3)Gal(b1-4)[Fuc(a1-3)]GlcNAc(b1-3)Gal(b1-4)[Fuc(a1-3)]GlcNAc
# Summary of the method: as §1
# [16] = molecular target: GlcNAc(a1-6)Gal(b1-4)GlcNAc
# Summary of the method: as §1
# [17] = molecular target: GlcNAc(b1-2)Gal(b1-3)GalNAc
# Summary of the method: as §1
# [18] = molecular target: GlcNAc(b1-2)Man(a1-3)[GlcNAc(b1-2)Man(a1-6)]Man(b1-4)GlcNAc(b1-4)GlcNAc
# Summary of the method: as §1
# [19] = molecular target: GlcNAc(b1-2)Man(a1-3)[GlcNAc(b1-2)Man(a1-6)]Man(b1-4)GlcNAc(b1-4)[Fuc(a1-6)]GlcNAc
# Summary of the method: as §1
# [20] = molecular target: GlcNAc(b1-2)Man(a1-3)[GlcNAc(b1-4)][GlcNAc(b1-2)Man(a1-6)]Man(b1-4)GlcNAc(b1-4)GlcNAc
# Summary of the method: as §1
# [21] = molecular target: GlcNAc(b1-2)Man(a1-3)[GlcNAc(b1-4)][GlcNAc(b1-2)Man(a1-6)]Man(b1-4)GlcNAc(b1-4)[Fuc(a1-6)]GlcNAc
# Summary of the method: as §1
# [22] = molecular target: GlcNAc(b1-2)[GlcNAc(b1-4)]Man(a1-3)[GlcNAc(b1-2)Man(a1-6)]Man(b1-4)GlcNAc(b1-4)GlcNAc
# Summary of the method: as §1
# [23] = molecular target: GlcNAc(b1-2)[GlcNAc(b1-4)]Man(a1-3)[GlcNAc(b1-4)][GlcNAc(b1-2)Man(a1-6)]Man(b1-4)GlcNAc(b1-4)GlcNAc
# Summary of the method: as §1
# [24] = molecular target: GlcNAc(b1-2)[GlcNAc(b1-4)]Man(a1-3)[GlcNAc(b1-4)][GlcNAc(b1-2)[GlcNAc(b1-6)]Man(a1-6)]Man(b1-4)GlcNAc(b1-4)GlcNAc
# Summary of the method: as §1
# [25] = molecular target: GlcNAc(b1-2)[GlcNAc(b1-4)]Man(a1-3)[GlcNAc(b1-4)][GlcNAc(b1-2)[GlcNAc(b1-6)]Man(a1-6)]Man(b1-4)GlcNAc(b1-4)[Fuc(a1-6)]GlcNAc
# Summary of the method: as §1
# [26] = molecular target: GlcNAc(b1-2)[GlcNAc(b1-6)]Man(a1-6)[GlcNAc(b1-2)Man(a1-3)]Man(b1-4)GlcNAc(b1-4)GlcNAc
# Summary of the method: as §1
# [27] = molecular target: GlcNAc(b1-2)[GlcNAc(b1-6)]Man(a1-6)[GlcNAc(b1-2)Man(a1-3)]Man(b1-4)GlcNAc(b1-4)[Fuc(a1-6)]GlcNAc
# Summary of the method: as §1
# [28] = molecular target: GlcNAc(b1-2)[GlcNAc(b1-6)]Man(a1-6)[GlcNAc(b1-4)][GlcNAc(b1-2)Man(a1-3)]Man(b1-4)GlcNAc(b1-4)GlcNAc
# Summary of the method: as §1
# [29] = molecular target: GlcNAc(b1-3)Fuc
# Summary of the method: as §1
# [30] = molecular target: GlcNAc(b1-3)Gal
# Summary of the method: as §1
# [31] = molecular target: GlcNAc(b1-3)Gal(b1-3)GalNAc
# Summary of the method: as §1
# [32] = molecular target: GlcNAc(b1-3)Gal(b1-4)Glc
# Summary of the method: as §1
# [33] = molecular target: GlcNAc(b1-3)Gal(b1-4)GlcNAc
# Summary of the method: as §1
# [34] = molecular target: GlcNAc(b1-3)Gal(b1-4)GlcNAc(b1-2)Man(a1-3)[GlcNAc(b1-3)Gal(b1-4)GlcNAc(b1-2)Man(a1-6)]Man(b1-4)GlcNAc(b1-4)GlcNAc
# Summary of the method: as §1
# [35] = molecular target: GlcNAc(b1-3)Gal(b1-4)GlcNAc(b1-2)Man(a1-3)[GlcNAc(b1-3)Gal(b1-4)GlcNAc(b1-2)Man(a1-6)]Man(b1-4)GlcNAc(b1-4)[Fuc(a1-6)]GlcNAc
# Summary of the method: as §1
# [36] = molecular target: GlcNAc(b1-3)Gal(b1-4)GlcNAc(b1-2)[GlcNAc(b1-3)Gal(b1-4)GlcNAc(b1-6)]Man(a1-6)[GlcNAc(b1-3)Gal(b1-4)GlcNAc(b1-2)Man(a1-3)]Man(b1-4)GlcNAc(b1-4)GlcNAc
# Summary of the method: as §1
# [37] = molecular target: GlcNAc(b1-3)Gal(b1-4)GlcNAc(b1-3)Gal(b1-4)GlcNAc
# Summary of the method: as §1
binder,measurement,setting,value
B1,glycan array binding signal (z-score),[1],0.061
same,glycan array binding signal (z-score),[2],-0.131
same,glycan array binding signal (z-score),[3],-0.075
same,glycan array binding signal (z-score),[4],-0.217
same,glycan array binding signal (z-score),[5],-0.48
same,glycan array binding signal (z-score),[6],0.613
same,glycan array binding signal (z-score),[7],-0.97
same,glycan array binding signal (z-score),[8],-0.577
same,glycan array binding signal (z-score),[9],-0.133
same,glycan array binding signal (z-score),[10],-0.537
same,glycan array binding signal (z-score),[11],0.055
same,glycan array binding signal (z-score),[12],-1.06
same,glycan array binding signal (z-score),[13],-1.13
same,glycan array binding signal (z-score),[14],-1.15
same,glycan array binding signal (z-score),[15],0.682
same,glycan array binding signal (z-score),[16],-0.931
same,glycan array binding signal (z-score),[17],0.502
same,glycan array binding signal (z-score),[18],0.019
same,glycan array binding signal (z-score),[19],0.801
same,glycan array binding signal (z-score),[20],-0.335
same,glycan array binding signal (z-score),[21],0.162
same,glycan array binding signal (z-score),[22],0.078
same,glycan array binding signal (z-score),[23],-0.352
same,glycan array binding signal (z-score),[24],-0.697
same,glycan array binding signal (z-score),[25],-0.341
same,glycan array binding signal (z-score),[26],-0.604
same,glycan array binding signal (z-score),[27],2.54
same,glycan array binding signal (z-score),[28],-0.977
same,glycan array binding signal (z-score),[29],0.776
same,glycan array binding signal (z-score),[30],-0.731
same,glycan array binding signal (z-score),[31],-0.349
same,glycan array binding signal (z-score),[32],-0.219
same,glycan array binding signal (z-score),[33],-0.122
same,glycan array binding signal (z-score),[34],0.054
same,glycan array binding signal (z-score),[35],0.097
same,glycan array binding signal (z-score),[36],0.254
same,glycan array binding signal (z-score),[37],0.427

# A different layout for part of the listing above.
binder	measurement	setting	value
B1	glycan array binding signal (z-score)	[18]	0.019
same	glycan array binding signal (z-score)	[19]	0.801
same	glycan array binding signal (z-score)	[20]	-0.335
same	glycan array binding signal (z-score)	[21]	0.162
same	glycan array binding signal (z-score)	[22]	0.078
same	glycan array binding signal (z-score)	[23]	-0.352
same	glycan array binding signal (z-score)	[24]	-0.697
same	glycan array binding signal (z-score)	[25]	-0.341
same	glycan array binding signal (z-score)	[26]	-0.604
same	glycan array binding signal (z-score)	[27]	2.54
same	glycan array binding signal (z-score)	[28]	-0.977
